Measurements from the supplement of paper PMC12067093, “Discovery and optimisation of a covalent ligand for TRIM25 and its application to targeted protein ubiquitination” (Chemical Science, 2025).
Some of the results follow.

The chains behind the UniProt entries cited, without tags or fusion partners. Where a name states a change or a piece, a line headed by the entry shows the natural chain unless it says otherwise.
UniProt Q7LBC6: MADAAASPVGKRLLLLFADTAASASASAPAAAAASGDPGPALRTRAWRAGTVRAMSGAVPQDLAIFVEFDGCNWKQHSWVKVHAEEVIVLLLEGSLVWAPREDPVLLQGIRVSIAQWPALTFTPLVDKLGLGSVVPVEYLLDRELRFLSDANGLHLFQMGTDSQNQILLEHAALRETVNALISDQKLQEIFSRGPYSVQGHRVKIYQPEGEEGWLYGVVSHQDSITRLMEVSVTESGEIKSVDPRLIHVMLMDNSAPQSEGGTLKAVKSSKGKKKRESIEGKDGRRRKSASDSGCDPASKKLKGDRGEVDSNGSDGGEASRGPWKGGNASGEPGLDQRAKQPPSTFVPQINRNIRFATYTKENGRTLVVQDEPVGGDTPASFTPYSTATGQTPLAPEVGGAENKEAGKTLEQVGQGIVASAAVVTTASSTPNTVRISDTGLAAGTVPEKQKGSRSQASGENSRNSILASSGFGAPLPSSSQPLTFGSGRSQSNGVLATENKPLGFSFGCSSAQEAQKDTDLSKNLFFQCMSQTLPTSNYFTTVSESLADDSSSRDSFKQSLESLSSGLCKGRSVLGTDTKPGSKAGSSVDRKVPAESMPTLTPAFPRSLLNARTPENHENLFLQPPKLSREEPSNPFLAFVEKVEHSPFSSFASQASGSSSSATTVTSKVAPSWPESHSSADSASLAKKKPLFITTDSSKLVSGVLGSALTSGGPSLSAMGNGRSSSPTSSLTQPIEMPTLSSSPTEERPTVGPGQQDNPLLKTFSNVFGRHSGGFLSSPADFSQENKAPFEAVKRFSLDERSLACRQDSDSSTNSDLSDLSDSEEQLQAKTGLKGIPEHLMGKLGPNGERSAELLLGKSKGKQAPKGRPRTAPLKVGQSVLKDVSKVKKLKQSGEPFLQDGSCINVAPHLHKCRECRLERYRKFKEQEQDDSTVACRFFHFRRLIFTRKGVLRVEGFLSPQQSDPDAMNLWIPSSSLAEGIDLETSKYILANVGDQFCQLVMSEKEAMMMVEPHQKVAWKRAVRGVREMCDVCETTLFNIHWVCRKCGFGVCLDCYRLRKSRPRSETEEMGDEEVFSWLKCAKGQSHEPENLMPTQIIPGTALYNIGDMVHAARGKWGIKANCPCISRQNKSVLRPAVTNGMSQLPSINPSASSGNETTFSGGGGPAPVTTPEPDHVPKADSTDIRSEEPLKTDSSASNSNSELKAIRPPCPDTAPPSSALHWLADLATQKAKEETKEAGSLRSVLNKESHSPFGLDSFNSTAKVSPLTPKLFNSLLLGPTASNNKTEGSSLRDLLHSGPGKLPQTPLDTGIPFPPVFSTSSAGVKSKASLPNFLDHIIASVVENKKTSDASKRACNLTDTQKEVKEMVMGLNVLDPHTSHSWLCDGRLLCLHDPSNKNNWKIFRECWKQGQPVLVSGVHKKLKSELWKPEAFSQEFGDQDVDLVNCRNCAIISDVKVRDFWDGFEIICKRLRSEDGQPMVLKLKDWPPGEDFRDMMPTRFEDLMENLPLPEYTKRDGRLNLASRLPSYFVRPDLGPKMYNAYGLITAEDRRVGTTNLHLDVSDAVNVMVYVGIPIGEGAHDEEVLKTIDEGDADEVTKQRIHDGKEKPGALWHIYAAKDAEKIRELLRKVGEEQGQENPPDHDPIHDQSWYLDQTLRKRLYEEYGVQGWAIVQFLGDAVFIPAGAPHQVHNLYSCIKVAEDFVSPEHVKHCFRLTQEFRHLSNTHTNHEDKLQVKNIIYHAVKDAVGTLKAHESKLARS
UniProt Q92945: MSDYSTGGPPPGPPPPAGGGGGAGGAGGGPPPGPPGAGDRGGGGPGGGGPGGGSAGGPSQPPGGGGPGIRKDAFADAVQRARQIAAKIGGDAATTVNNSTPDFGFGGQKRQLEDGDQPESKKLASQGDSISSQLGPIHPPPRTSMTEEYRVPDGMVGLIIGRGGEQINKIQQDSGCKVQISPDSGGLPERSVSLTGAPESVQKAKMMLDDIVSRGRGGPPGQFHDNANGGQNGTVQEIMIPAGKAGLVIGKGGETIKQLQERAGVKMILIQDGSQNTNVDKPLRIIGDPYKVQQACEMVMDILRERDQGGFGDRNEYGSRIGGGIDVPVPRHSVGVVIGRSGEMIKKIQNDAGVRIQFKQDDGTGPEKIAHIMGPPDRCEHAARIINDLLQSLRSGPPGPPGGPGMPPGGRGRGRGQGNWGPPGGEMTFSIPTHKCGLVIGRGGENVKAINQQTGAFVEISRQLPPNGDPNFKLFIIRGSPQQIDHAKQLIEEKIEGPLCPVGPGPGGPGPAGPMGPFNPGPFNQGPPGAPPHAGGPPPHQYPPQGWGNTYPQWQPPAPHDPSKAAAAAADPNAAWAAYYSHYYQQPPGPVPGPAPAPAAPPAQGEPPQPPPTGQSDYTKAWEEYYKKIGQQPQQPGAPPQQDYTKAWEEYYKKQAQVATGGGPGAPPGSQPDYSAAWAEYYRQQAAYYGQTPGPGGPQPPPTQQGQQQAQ
UniProt Q9H079: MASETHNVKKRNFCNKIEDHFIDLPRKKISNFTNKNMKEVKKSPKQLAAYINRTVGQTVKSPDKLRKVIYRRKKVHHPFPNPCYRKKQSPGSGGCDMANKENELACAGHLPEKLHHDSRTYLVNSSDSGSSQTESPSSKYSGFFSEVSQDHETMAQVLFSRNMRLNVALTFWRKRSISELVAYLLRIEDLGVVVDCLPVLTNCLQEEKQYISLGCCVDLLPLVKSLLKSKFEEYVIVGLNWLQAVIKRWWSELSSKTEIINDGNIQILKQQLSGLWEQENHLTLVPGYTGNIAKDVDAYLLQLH
UniProt Q8N9B5, whole entry, looked up: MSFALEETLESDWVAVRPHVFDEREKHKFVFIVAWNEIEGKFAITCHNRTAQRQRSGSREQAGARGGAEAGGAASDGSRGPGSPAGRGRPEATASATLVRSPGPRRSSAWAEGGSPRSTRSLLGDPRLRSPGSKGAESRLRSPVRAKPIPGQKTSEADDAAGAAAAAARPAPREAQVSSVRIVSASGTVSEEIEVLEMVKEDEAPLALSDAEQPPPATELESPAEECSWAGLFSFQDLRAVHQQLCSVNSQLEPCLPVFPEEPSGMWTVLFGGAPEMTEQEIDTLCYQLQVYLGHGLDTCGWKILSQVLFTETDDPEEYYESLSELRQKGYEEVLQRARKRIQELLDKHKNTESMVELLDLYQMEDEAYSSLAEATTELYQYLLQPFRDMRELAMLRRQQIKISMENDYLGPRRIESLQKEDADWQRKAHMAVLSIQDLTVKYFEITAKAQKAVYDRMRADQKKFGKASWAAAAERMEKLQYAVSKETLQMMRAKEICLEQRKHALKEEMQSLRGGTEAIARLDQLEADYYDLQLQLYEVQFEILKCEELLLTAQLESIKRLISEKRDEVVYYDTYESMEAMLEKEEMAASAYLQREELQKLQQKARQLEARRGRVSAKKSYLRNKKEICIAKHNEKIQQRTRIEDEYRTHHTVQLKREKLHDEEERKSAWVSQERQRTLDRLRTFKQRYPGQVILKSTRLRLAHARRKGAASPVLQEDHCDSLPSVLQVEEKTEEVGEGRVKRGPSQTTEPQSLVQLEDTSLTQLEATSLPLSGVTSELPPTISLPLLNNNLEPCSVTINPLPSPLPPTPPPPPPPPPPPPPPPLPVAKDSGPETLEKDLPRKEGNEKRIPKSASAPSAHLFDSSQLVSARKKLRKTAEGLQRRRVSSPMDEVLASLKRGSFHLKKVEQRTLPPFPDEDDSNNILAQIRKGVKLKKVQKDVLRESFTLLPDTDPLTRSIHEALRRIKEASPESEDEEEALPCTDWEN
UniProt P26440: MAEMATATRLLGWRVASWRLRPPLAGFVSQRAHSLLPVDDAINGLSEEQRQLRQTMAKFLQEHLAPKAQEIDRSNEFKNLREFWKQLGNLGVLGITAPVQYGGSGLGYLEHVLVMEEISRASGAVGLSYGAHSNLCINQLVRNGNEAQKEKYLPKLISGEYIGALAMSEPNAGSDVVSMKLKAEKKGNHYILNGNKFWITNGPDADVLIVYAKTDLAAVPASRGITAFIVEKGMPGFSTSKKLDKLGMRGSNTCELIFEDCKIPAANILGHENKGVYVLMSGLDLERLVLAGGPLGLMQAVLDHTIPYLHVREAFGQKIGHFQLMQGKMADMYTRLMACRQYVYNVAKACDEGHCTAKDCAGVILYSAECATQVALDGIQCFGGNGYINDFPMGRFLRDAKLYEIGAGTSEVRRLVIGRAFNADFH
UniProt Q14667: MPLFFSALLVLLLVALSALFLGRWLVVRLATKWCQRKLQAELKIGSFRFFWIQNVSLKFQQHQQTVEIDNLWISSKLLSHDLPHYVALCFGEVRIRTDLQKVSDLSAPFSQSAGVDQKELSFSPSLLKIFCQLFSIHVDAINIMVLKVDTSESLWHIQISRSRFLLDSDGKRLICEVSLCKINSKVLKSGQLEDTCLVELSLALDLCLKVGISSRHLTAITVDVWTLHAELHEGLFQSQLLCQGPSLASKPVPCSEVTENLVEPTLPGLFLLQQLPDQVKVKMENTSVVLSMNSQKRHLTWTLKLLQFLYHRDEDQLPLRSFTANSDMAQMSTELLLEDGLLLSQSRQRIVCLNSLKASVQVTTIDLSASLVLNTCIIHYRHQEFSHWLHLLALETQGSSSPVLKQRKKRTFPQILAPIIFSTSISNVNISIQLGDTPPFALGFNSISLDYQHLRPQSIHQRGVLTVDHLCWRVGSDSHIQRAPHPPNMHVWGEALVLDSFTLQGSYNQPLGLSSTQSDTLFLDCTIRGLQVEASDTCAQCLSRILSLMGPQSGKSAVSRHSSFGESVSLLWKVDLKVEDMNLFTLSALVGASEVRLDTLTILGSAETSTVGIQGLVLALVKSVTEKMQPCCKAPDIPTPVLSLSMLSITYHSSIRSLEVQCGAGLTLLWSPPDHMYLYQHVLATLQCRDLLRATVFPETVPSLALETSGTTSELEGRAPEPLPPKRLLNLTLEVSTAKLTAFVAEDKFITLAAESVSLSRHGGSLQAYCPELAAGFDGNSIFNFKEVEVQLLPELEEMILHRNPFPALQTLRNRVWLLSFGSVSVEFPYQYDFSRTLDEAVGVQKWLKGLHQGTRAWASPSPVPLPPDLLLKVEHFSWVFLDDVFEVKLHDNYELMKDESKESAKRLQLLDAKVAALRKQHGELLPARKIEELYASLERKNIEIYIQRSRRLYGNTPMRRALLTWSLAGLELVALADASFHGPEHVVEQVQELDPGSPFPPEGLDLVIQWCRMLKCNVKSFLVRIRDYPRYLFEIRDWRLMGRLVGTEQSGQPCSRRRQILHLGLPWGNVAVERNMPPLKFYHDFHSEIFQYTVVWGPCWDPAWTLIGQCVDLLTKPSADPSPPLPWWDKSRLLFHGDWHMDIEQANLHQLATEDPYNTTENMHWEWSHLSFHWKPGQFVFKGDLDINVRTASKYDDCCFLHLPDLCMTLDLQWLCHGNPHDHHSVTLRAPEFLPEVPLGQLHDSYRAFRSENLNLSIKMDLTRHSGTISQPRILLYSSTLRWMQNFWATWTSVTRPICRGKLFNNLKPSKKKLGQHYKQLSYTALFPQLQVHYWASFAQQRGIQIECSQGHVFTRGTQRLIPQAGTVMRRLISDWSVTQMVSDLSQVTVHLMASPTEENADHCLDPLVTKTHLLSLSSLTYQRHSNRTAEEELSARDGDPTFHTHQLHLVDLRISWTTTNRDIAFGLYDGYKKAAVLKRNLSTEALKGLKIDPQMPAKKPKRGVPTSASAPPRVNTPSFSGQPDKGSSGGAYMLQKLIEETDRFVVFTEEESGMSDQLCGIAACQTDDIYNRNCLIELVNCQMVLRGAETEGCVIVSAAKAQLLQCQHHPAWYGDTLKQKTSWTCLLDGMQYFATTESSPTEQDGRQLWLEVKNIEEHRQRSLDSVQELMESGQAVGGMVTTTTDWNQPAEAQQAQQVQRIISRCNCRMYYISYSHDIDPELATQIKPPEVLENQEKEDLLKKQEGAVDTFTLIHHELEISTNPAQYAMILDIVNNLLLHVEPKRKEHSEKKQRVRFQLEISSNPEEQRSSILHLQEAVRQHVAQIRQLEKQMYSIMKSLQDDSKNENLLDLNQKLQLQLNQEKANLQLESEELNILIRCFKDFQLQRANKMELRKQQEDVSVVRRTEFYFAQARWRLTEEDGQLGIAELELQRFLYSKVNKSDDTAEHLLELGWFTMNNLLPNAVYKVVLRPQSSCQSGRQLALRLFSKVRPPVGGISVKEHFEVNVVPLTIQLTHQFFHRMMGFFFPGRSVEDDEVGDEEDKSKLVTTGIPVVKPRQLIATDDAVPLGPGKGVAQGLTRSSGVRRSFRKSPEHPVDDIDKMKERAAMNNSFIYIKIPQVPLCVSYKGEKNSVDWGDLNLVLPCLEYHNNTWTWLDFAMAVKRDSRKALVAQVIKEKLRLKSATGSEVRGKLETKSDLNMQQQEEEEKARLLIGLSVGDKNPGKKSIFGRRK

Compound: Cc1cc(ccc1-c1ccccc1)C(=O)N1CCCN(CC1)C(=O)CCl [compound 10]
Assay: probe-labelled cysteine peptide fold change vs DMSO (competition) (log2 fold change); higher = less target engagement (more negative = stronger competition)
Details: THP-1, incubation time: 4 h
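Further: competitive profiling in live THP-1 cells: cysteine peptides tagged with an iodoacetamide desthiobiotin (IA-DTB) probe, intensity after compound treatment relative to DMSO-treated cells.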

Row | Target | probe-labelled cysteine peptide fold change (10 µM) | probe-labelled cysteine peptide fold change (50 µM)
1 | KCTD18_Q6PI47_234_VPHELIECWTLEERPLLGSLR (UniProt Q6PI47) | 0.0969 | 0.0679
2 | KHDC4_Q7Z7F0_280_GSGCIEPASGR (UniProt Q7Z7F0) | 0.0612 | -0.00392
3 | KEAP1_Q14145_624_QIDQQNCTC (UniProt Q14145) | -0.465 | -0.267
4 | KDM2B_Q8NHM5_665_QCIAPVLPHTAVCLVCGEAGKEDTVEEEEGK (UniProt Q8NHM5) | -0.147 | -0.266
5 | KDM2A_Q9Y2K7_477_CVPTGIEDEDALIADVK (UniProt Q9Y2K7) | 0.103 | -0.0878
6 | KDM3B_Q7LBC6_1392_LLCLHDPSNK (UniProt Q7LBC6) | 0.278 | 0.0431
7 | KDM4A_O75164_533_DSISSDSETSEPLSCR (UniProt O75164) | -0.287 | -0.622
8 | KDM3B_Q7LBC6_937_FKEQEQDDSTVACR (UniProt Q7LBC6) | -0.224 | -0.34
9 | KHSRP_Q92945_176_IQQDSGCK (UniProt Q92945) | 0.238 | 0.0223
10 | KATNBL1_Q9H079_106_ENELACAGHLPEK (UniProt Q9H079) | -0.285 | -0.337
11 | JMJD6_Q6NYC1_101_CGEDNDGYSVK (UniProt Q6NYC1) | -0.128 | 0.139
12 | JMY_Q8N9B5_547_CEELLLTAQLESIKR (UniProt Q8N9B5) | 0.107 | 0.0065
13 | KANK2_Q63ZY3_797_EIAGLLLAVPSCDISLTDR (UniProt Q63ZY3) | -0.226 | -0.377
14 | IVD_P26440_254_GSNTCELIFEDCK (UniProt P26440) | 0.152 | 0.605
15 | KANK1_Q14678_907_ITGNYLGYTCK (UniProt Q14678) | 0.164 | -0.317
16 | KDM2B_Q8NHM5_770_RSECEEAPR (UniProt Q8NHM5) | -0.00274 | 0.204

Row | Target | probe-labelled cysteine peptide fold change (10 µM) | probe-labelled cysteine peptide fold change (50 µM)
17 | KDM5C_P41229_707_GITEAEREAFELLPDDERQCIK (UniProt P41229) | 0.0451 | -0.369
18 | IVNS1ABP_Q9Y6Y0_387_TVECYNPHTDHWSFLAPMR (UniProt Q9Y6Y0) | -0.13 | -0.0514
19 | KDM2B_Q8NHM5_1278_DSLTEINLSDCNK (UniProt Q8NHM5) | 0.0712 | 0.0647
20 | KAT6A_Q92794_773_LQLNLRPVDVDPECLR (UniProt Q92794) | 0.0407 | 0.0173
21 | KAT8_Q9H7Z6_442_KPPITVDSVCLK (UniProt Q9H7Z6) | 0.252 | 0.135
22 | ITPR3_Q14573_1387_CTSLLPLEDVVSVVTHEDCITEVK (UniProt Q14573) | 0.223 | 0.104
23 | ITSN2_Q9NZM3_1414+1429_ENSDRLEWIQAHVQCEGLAEQLIFNSLTNCLGPR (UniProt Q9NZM3) | -0.177 | 0.265
24 | JMY_Q8N9B5_721_GAASPVLQEDHCDSLPSVLQVEEK (UniProt Q8N9B5) | -0.183 | 0.0881
25 | KDSR_Q06136_47_CIAIECYK (UniProt Q06136) | -0.0888 | -0.119
26 | ITPR1_Q14643_2277_AQPVLYWCAR (UniProt Q14643) | 0.0331 | -0.0613
27 | KBTBD11_O94819_537_QWSPCVAPLR (UniProt O94819) | -0.00854 | -0.122
28 | KIAA0100_Q14667_1055_LVGTEQSGQPCSR (UniProt Q14667) | -0.0737 | -0.179
29 | KDM1A_O60341_665_VVLCFDR (UniProt O60341) | 0.109 | 0.607
30 | ITPR1_Q14643_292_ALWEVEVVQHDPCR (UniProt Q14643) | -0.0376 | 0.104
31 | KHSRP_Q92945_296_VQQACEMVMDILR (UniProt Q92945) | -0.058 | 0.0234
32 | KIAA0100_Q14667_1595_GAETEGCVIVSAAK (UniProt Q14667) | -0.291 | -0.303

Another view of some results above:
KDM2B_Q8NHM5_1278_DSLTEINLSDCNK (UniProt Q8NHM5)
  probe-labelled cysteine peptide fold change (10 µM) = 0.0712
  probe-labelled cysteine peptide fold change (50 µM) = 0.0647
KAT6A_Q92794_773_LQLNLRPVDVDPECLR (UniProt Q92794)
  probe-labelled cysteine peptide fold change (10 µM) = 0.0407
  probe-labelled cysteine peptide fold change (50 µM) = 0.0173
